Source: article PMC4546478
No constants are given. Whether binding was seen depends on the method and setting. Binding seen in cells or lysates may run through a third protein. Some results given as binding are weak or reduced against the parent protein; the word gives no strength.

Protein sequences, listed by entry. Tags and fused reporters are not part of them.
UniProt P49841: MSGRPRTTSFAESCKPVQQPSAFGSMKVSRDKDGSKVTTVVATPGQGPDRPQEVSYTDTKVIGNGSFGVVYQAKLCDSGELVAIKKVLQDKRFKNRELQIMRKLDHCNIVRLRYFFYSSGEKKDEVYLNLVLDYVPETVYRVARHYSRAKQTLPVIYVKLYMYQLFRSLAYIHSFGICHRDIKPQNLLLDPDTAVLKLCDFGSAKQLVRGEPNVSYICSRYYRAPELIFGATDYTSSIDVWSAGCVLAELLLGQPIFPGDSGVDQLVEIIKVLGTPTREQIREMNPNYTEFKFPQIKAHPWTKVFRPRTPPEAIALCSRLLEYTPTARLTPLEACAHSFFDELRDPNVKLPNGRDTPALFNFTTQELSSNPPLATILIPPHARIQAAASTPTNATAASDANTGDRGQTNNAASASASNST

Key:
[1] = molecular target: phospho-glycogen synthase kinase 3β (human (endogenous in PCI55)) (UniProt P49841); test: co-IP; endogenous proteins; lysates of PCI55 cells immunoprecipitated and blotted with the indicated antibodies; details in the Supplementary Materials and Methods
[2] = molecular target: glycogen synthase kinase 3β (human (endogenous in PCI55)) (UniProt P49841); test: as above

binding [1]: binds
binding [2]: binds
Substance: Pim-3 kinase (from UniProt Q86V86 1-326) (enzyme)
